Like-named read-outs stand apart in the source and are kept apart here. Results are given in words; binding and its absence hold for the method and conditions named. Binding seen in cells or lysates may run through a third protein. Some binding calls cover weakened binding; strength is not graded here. Sequences can lack the tags named with a protein.

Amino acid sequences for entries named in this document (tags omitted).
UniProt P35226: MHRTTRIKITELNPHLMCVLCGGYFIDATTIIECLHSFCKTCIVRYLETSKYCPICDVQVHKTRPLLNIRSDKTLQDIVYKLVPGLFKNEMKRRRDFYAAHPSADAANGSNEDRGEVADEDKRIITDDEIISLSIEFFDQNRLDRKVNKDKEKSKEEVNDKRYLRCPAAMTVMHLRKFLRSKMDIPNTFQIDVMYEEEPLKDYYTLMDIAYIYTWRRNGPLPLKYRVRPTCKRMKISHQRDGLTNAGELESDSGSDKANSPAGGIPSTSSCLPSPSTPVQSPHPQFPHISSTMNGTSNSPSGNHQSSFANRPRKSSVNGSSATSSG

Holding throughout (assay): co-IP; co-immunoprecipitation from lysates of breast cancer cells (SUM159; cells overexpressing IL1R2 or sIL1R2), Western blot
The target in assay [1] is T1, Ubiquitin-specific protease 15 (USP15) in SUM159 cells (human (in human SUM159 cells; endogenous or HA-tagged not told)) (UniProt Q9Y4E8).
T1 sequence: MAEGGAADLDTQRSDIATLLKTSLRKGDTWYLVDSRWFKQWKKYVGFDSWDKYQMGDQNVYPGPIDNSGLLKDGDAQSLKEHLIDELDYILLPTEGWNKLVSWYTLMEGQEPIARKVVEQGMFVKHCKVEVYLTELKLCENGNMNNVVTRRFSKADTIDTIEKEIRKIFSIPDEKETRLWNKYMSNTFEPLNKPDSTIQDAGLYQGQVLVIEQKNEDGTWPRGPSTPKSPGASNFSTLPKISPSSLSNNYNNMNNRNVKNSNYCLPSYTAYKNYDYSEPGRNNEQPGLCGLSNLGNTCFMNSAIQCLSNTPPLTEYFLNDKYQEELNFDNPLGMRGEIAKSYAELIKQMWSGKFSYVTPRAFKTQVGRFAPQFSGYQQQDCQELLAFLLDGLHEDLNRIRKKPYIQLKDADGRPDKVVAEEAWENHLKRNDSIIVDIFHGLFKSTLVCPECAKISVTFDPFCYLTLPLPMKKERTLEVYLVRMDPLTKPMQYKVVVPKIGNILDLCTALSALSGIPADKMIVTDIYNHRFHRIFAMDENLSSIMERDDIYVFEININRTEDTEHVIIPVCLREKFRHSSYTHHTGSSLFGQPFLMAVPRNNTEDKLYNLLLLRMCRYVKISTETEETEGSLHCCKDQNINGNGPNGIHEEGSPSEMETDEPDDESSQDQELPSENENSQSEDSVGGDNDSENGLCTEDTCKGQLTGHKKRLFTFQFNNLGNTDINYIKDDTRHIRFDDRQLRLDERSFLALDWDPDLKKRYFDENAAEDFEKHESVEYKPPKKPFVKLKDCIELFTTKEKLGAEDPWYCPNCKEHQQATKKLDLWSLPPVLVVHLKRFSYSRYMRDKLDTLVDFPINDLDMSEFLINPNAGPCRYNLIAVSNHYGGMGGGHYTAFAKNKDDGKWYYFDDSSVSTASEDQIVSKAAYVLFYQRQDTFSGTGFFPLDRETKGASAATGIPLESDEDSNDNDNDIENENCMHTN

The target of assay [2] is BMI1 protein in breast cancer cells (human (in human SUM159 cells; endogenous or HA-tagged not told)) (UniProt P35226).
Assay [3] deals with T1, Ubiquitin-specific protease 15 (USP15) in SUM159 cells (human (in human SUM159 cells; endogenous or HA-tagged not told)). The source holds these as a separate data set.

As for “BMI1 protein in breast cancer cells (from UniProt P35226 1-326)”, the binding result in assay [1] was “binds”.

B1: IL1R2 ectodomain (soluble IL1R2) with a C-terminal FLAG tag (domain or fragment, UniProt P27930-1 14-343)
chain: FTLQPAAHTGAARSCRFRGRHYKREFRLEGEPVALRCPQVPYWLWASVSPRINLTWHKNDSARTVPGEEETRMWAQDGALWLLPALQEDSGTYVCTTRNASYCDKMSIELRVFENTDAFLPFISYPQILTLSTSGVLVCPDLSEFTRDKTDVKIQWYKDSLLLDKDNEKFLSVRGTTHLLVHDVALEDAGYYRCVLTFAHEGQQYNITRSIELRIKKKKEETIPVIISPLKTISASLGSRLTIPCKVFLGTGTPLTTMLWWTANDTHIESAYPGGRVTEGPRQEYSENNENYIEVPLIFDPVTREDLHMDFKCVVHNTLSFQTLRTTVKE
Turning to B1, the binding entry in assay [2] is recorded as “no binding”.

B2: Full-length interleukin-1 receptor type 2 (IL1R2) with a C-terminal FLAG tag (receptor, UniProt P27930-1 14-398)
chain: FTLQPAAHTGAARSCRFRGRHYKREFRLEGEPVALRCPQVPYWLWASVSPRINLTWHKNDSARTVPGEEETRMWAQDGALWLLPALQEDSGTYVCTTRNASYCDKMSIELRVFENTDAFLPFISYPQILTLSTSGVLVCPDLSEFTRDKTDVKIQWYKDSLLLDKDNEKFLSVRGTTHLLVHDVALEDAGYYRCVLTFAHEGQQYNITRSIELRIKKKKEETIPVIISPLKTISASLGSRLTIPCKVFLGTGTPLTTMLWWTANDTHIESAYPGGRVTEGPRQEYSENNENYIEVPLIFDPVTREDLHMDFKCVVHNTLSFQTLRTTVKEASSTFSWGIVLAPLSLAFLVLGGIWMHRRCKHRTGKADGLTVLWPHHQDFQSYPK
Take B2: the binding result in assay [3] is “binds”.

The record behind these values is PMC6947699.
